Assay results from PubChem BioAssay AID1347075 (National Center for Advancing Translational Sciences (NCATS), 2019).
Out of some 400,000 compounds screened, about 5,500 (1.4%) were called active. The shares of active, inactive and inconclusive entries below differ from those in the screen. The call rests on the fitted dose curve; in most records, active means well fitted cell-killing curve with a large enough effect; inconclusive means small, poorly fitted or top-dose-only effect, or effect the other way; inactive means flat fitted curve, though single readings scatter. Potencies beside an inconclusive call are fits to weak or partial responses and may not hold up.
On the % scale 0 is the no-effect control and ±100 the full control effect; potency means the concentration at half of the fitted maximal effect.

Assay: qHTS assay for MDR1-selective chemotherapeutics: Primary screen using the parental adenocarcinoma cell KB-3-1; further: nearly all actives have a fitted effect of over 60% in size
Conditions: KB-3-1 viability, CellTiter-Glo ATP luminescence, 72 h; activity change, negative = cytotoxic: at 46.1 µM (top of the series)
Procedure, shortened: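 Here the drug-naive KB-3-1 line serves as comparator for MDR sub-line selectivity; cells received compound titrations, 72 h at 37 °C, then CellTiter-Glo readout.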
With `O=C(NCc1ccncc1)c1ccc(Oc2ccccc2)cc1` the Potency was inconclusive: 23.1 µM [cytotoxic, partial curve, poor fit].
In the case of `COc1ccc(S(=O)(=O)N2CCCCCC2)cc1C(=O)OCC(=O)NC1CCS(=O)(=O)C1` (stereo not given), the “activity change, negative = cytotoxic” value is reported as inactive: -9.34%.
With `COc1cc(/C=C2\CC(C(C)(C)C)C/C(=C\c3cc(OC)c(OC)c(OC)c3)C2=O)cc(OC)c1OC` (stereo not given) the Potency was active: 8.2 µM.
For `COc1ccc(Cn2nnnc2C(c2ccccc2)N2CCN(c3ccccc3)CC2)cc1` (stereo not given), the Potency was inconclusive: 4.61 µM [cytotoxic, partial curve].
For `Cc1cccc(Nc2nc(-c3ccc4c(c3)OCCO4)cs2)c1`, the Potency was inconclusive: 23.1 µM [cytotoxic, single point].
In the case of `O=C(Nc1ccc(Cl)cc1)c1ccc(OCC2CCCO2)cc1` (stereo not given), the Potency is reported as inconclusive: 3.66 µM [cytotoxic, full curve, poor fit].
For `CC(=S)/C=C1\Sc2ccccc2N1C`, the “activity change, negative = cytotoxic” value was inactive: -7.68%.
With `COc1cccc(N2CCN(c3ncnc4c3[nH]c3ccc(F)cc34)CC2C)c1` (stereo not given) the Potency was inconclusive: 2.59 µM [cytotoxic, partial curve, poor fit].
With `O=C(Nc1nc(-c2cc(Cl)sc2Cl)cs1)c1cccs1` the Potency was inconclusive: 29.1 µM [cytotoxic, single point].
With `CCOc1ccc(-n2nc3ccc(NC(=O)c4ccc(C)cc4C)cc3n2)cc1` the “activity change, negative = cytotoxic” value was inactive: 7.97%.
With `Cc1cccc(/C=N/NC(=O)c2ccc(NC(=O)c3ccc(F)cc3)cc2)n1` the “activity change, negative = cytotoxic” value was inactive: 0.734%.
With `COc1cc(/C=N/OCC(=O)NC23CC4CC(CC(C4)C2)C3)ccc1OCc1ccccc1` the Potency was inconclusive: 32.6 µM [cytotoxic, single point].
With `Cc1ccc(NC(=O)C2CCCN(c3ncnc4c3nc3n4CCCCC3)C2)cc1Cl` (stereo not given) the Potency was inconclusive: 13 µM [cytotoxic, partial curve, poor fit].
With `Cc1[nH]c2ccccc2c1/C=N/Nc1ccccc1[N+](=O)[O-]` the Potency was inconclusive: 1.84 µM [cytotoxic, single point].
In the case of `c1ccc(-c2nnc(-c3ccccn3)nc2NC2CCCCC2)cc1`, the Potency is reported as active: 16.4 µM.
In the case of `COc1ccc(OS(=O)(=O)c2c(C)noc2C)cc1`, the Potency is reported as inconclusive: 29.1 µM [rising, single point].
In the case of `CC1=Nc2cc(C(=O)NC3CCCC3)ccc2Sc2ccc(Cl)cc21`, the Potency is reported as active: 3.26 µM.
For `CCc1ccc(-c2cc(C)no2)cc1S(=O)(=O)N1CCN(c2cccc(C)c2C)CC1`, the Potency was inconclusive: 11.6 µM [cytotoxic, single point].
For `Nc1nc(NCCOCCO)nc(NC2CCCCC2)c1[N+](=O)[O-]`, the “activity change, negative = cytotoxic” value was inactive: 4.76%.
In the case of `CC(Oc1cc2oc(=O)c3c(c2cc1Cl)CCCC3)C(=O)NCc1ccccn1` (stereo not given), the Potency is reported as inconclusive: 23.1 µM [cytotoxic, single point].
With `CCC(c1nnnn1C1CCCC1)N(Cc1cccs1)Cc1cc2cccc(C)c2[nH]c1=O` (stereo not given) the Potency was inconclusive: 20.6 µM [cytotoxic, single point].
For `CC(C)CN(CC(C)C)S(=O)(=O)c1ccc(C(=O)Nc2sc3c(c2C(N)=O)CCN(C(C)C)C3)cc1`, the “activity change, negative = cytotoxic” value was inactive: 0.748%.
In the case of `Cc1cc(-c2csc(N)n2)c(C)n1Cc1ccccc1`, the Potency is reported as inconclusive: 32.6 µM [cytotoxic, single point].
With `CCOCCc1nn2c(=O)cc(COC(=O)c3ccccc3NC(=O)CC(C)C)nc2s1` the Potency was inconclusive: 29.1 µM [cytotoxic, single point].
For `COc1cc(N=c2c([N+](=O)[O-])nn(-c3ccc4c(c3)OCCO4)n2O)cc(OC)c1`, the Potency was inconclusive: 0.58 µM [cytotoxic, full curve, poor fit].
In the case of `CC(C)Nc1oc(Cc2cccc3ccccc23)nc1C#N`, the “activity change, negative = cytotoxic” value is reported as inactive: -17.6%.
For `Cc1noc(C)c1CSc1nc2ccccc2c(=O)n1-c1ccc(F)cc1F`, the Potency was active: 7.31 µM.
In the case of `O=C(NCc1ccco1)c1cccc(NC(=O)c2ccco2)c1`, the Potency is reported as active: 7.31 µM.
In the case of `O=C(NCc1ccccc1F)C1CC(=O)N(c2ccc3c(c2)OCCO3)C1` (stereo not given), the Potency is reported as inconclusive: 0.0146 µM [cytotoxic, full curve, poor fit].
With `CCOC(=O)c1c(NC(=O)c2ccccc2N(C)S(=O)(=O)c2ccccc2)sc2c1CCCC2` the Potency was active: 2.91 µM.
With `Cn1c(NCc2ccco2)nc2c1c(=O)n(Cc1ccc(Cl)c(Cl)c1)c(=O)n2C` the Potency was inconclusive: 23.1 µM [cytotoxic, single point].
For `CCc1nnc(NC(=O)c2ccccc2NC(=O)C2CCN(C(=O)c3ccco3)CC2)s1`, the Potency was inconclusive: 20.6 µM [cytotoxic, single point].
In the case of `CC(=O)c1ccc(NC(=O)Cn2c(=O)oc3cc(S(=O)(=O)N4CCCCC4)ccc32)cc1`, the “activity change, negative = cytotoxic” value is reported as inactive: 9.38%.
With `FC(F)Sc1ccc(-n2c(-c3ccc(Cl)cc3)c[n+]3c2CCC3)cc1` the Potency was inconclusive: 25.9 µM [cytotoxic, single point].
For `COc1cc(OC)cc(C(=O)N[C@H](C(=O)NCc2ccco2)C(C)C)c1`, the Potency was inconclusive: 29.1 µM [cytotoxic, single point].
In the case of `CC(NC(=O)/C(C#N)=C/c1ccc([N+](=O)[O-])o1)c1ccccc1` (stereo not given), the activity change, negative = cytotoxic is reported as inconclusive: -24.1%.
In the case of `CCOC(=O)c1cc2c(=O)n3ccccc3nc2n(Cc2ccco2)c1=NC(=O)c1ccc(F)cc1`, the “activity change, negative = cytotoxic” value is reported as inactive: 13.8%.
For `COc1cc(O)c(C(CC(=O)N2CCC(Cc3ccccc3)CC2)c2ccc(C)cc2)c(OC)c1` (stereo not given), the Potency was inconclusive: 63.1 µM [cytotoxic, single point].
In the case of `CCOC(=O)c1cnc(-n2nc(C)cc2C)nc1Nc1ccc(N(C)C)cc1`, the Potency is reported as inconclusive: 18.4 µM [cytotoxic, single point].
In the case of `CCOc1ccc(-n2cc(-c3ccc(OC)c(OC)c3)[nH]c2=S)cc1`, the “activity change, negative = cytotoxic” value is reported as inactive: -9.03%.
For `Cc1cc(=O)n2[nH]c(-c3ccc(C(C)(C)C)cc3)cc2n1`, the Potency was inconclusive: 29.1 µM [cytotoxic, single point].
For `Cc1cc(C(=O)CSc2n[nH]c(N)n2)c(C)n1-c1ccc(F)cc1`, the Potency was inconclusive: 18.4 µM [cytotoxic, single point].
In the case of `O=C(c1nn(Cc2ccccc2)c(=O)c2ccccc12)N1CCN(C/C=C/c2ccccc2)CC1`, the Potency is reported as inconclusive: 29.1 µM [cytotoxic, single point].
For `CCCC1=Nc2cc(C(=O)NCCCOCC)ccc2Sc2ccccc21`, the Potency was active: 0.517 µM.
For `O=C(N/N=C/c1ccc([N+](=O)[O-])o1)c1cccc(S(=O)(=O)N2CCOCC2)c1`, the Potency was inconclusive: 18.4 µM [rising, partial curve].
In the case of `COc1ccccc1CNS(=O)(=O)c1ccc(-c2cc(C)no2)cc1`, the Potency is reported as active: 1.3 µM.
For `Cc1nc2c(C)cccn2c(=O)c1NC(=O)c1ccco1`, the “activity change, negative = cytotoxic” value was inactive: -1.89%.
In the case of `Nc1c(Cl)cc(C2=NCCn3c2c2ccccc2[n+]3[O-])cc1Cl`, the Potency is reported as inconclusive: 18.4 µM [cytotoxic, single point].
With `Cc1ccc(-n2cnc3c(=O)[nH]cnc32)cc1` the Potency was inconclusive: 29.1 µM [cytotoxic, single point].
In the case of `CC(NC(=O)c1cc2c(=O)n(C)c3ccccc3c2n1C)c1ccc2c(c1)OCCO2` (stereo not given), the “activity change, negative = cytotoxic” value is reported as inactive: -4.69%.
For `CC(C)(C)C(=O)N1N=C(c2ccc(NS(C)(=O)=O)cc2)CC1c1cccs1` (stereo not given), the “activity change, negative = cytotoxic” value was inactive: 0%.
For `COc1ccccc1NS(=O)(=O)c1ccc(Cl)c(NC(=O)c2sc3cc(Cl)ccc3c2Cl)c1`, the “activity change, negative = cytotoxic” value was inactive: -20.1%.
With `O=C(COc1ccc2ccccc2c1Br)N1CCN(c2ccccn2)CC1` the activity change, negative = cytotoxic was inconclusive: -30.9% [cytotoxic].
For `c1ccc(N2CCCCC2)c(Nc2nc3ccccc3n3cnnc23)c1`, the Potency was inconclusive: 23.1 µM [cytotoxic, single point].
In the case of `COc1ccc(Nc2ccc(S(=O)(=O)N3CCCCC3)cc2[N+](=O)[O-])cc1OC`, the Potency is reported as inconclusive: 29.1 µM [cytotoxic, single point].
For `COc1ccc(C(=O)N2CCN(c3ccc([N+](=O)[O-])c(-n4nc(C)cc4C)c3)CC2)cc1`, the Potency was inconclusive: 29.1 µM [rising, single point].
In the case of `CCOc1ncccc1C(=O)N1CCN(C(=O)c2ccccc2)CC1`, the Potency is reported as inconclusive: 20.6 µM [rising, partial curve, poor fit].
With `O=C1C=C(NCCc2cc(Br)c(O)c(Br)c2)C(=O)c2ncccc21` the Potency was active: 7.31 µM.
For `CC(c1ccc(N(C)C)cc1)c1ccnc2ccccc12` (stereo not given), the Potency was inconclusive: 16.4 µM [cytotoxic, single point].
With `O=C(/C=C/c1ccco1)NC(=S)Nc1nc(-c2ccc3ccccc3c2)cs1` the Potency was active: 4.61 µM.
For `Cc1cccc(-c2noc(-c3c(C)noc3C)n2)c1`, the “activity change, negative = cytotoxic” value was inactive: 2%.
With `COc1ccccc1NC(=O)c1ccccc1NC(=O)c1ccccc1C(=O)O` the “activity change, negative = cytotoxic” value was inactive: 1.78%.
For `O=C(C(c1ccccc1)c1ccccc1)N1CCN(CCN2C(=O)c3cccc4cccc(c34)C2=O)CC1`, the “activity change, negative = cytotoxic” value was inactive: 3.98%.
With `COc1ccc(OC)c(CN2CCC(CNC(=O)Nc3cccc(Cl)c3)CC2)c1` the Potency was inconclusive: 20.6 µM [cytotoxic, single point].
For `CCCCOc1cc(C)nc(NCc2ccccc2)n1`, the Potency was active: 10.3 µM.
With `CC(C)OCCCNS(=O)(=O)c1ccc2c(c1)oc(=O)n2C` the Potency was inconclusive: 0.0103 µM [rising, full curve].
With `COc1ccc(Nc2cc(C(=O)NCCCN(C)C3CCCCC3)c3ccccc3n2)c(OC)c1` the “activity change, negative = cytotoxic” value was inactive: -7.46%.
With `COCCn1c(N)c(C(=O)NCc2cccs2)c2nc3ccccc3nc21` the Potency was inconclusive: 29.1 µM [cytotoxic, single point].
With `Cc1ccc(S(=O)(=O)C(NC(=O)c2ccccc2)=C(Cl)Cl)cc1` the Potency was inconclusive: 20.6 µM [cytotoxic, single point].
With `CCOc1cc(/C=N\NC(N)=O)cc(Br)c1OC(C)C` the Potency was active: 7.31 µM.
